Measured values from PubChem BioAssay AID1508600 (Functional Genomics Laboratory (NCATS/FGL), 2020).
Among all 53,000 sequences or so, about 3,700 (7%) were called active.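 Rule for the calls: active = gene knockdowns whose robust z-score for IL-1 alpha signal is at least 2 or at most -2, so actives lie on both sides; inactive = the rest.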 This is one part of the list.

test: Components of the Cytosolic LPS Sensing Pathway: Gene Identification via Genome-wide siRNA Screen; conditions: RAW264.7 macrophages, IL-1a HTRF, actives lie on both sides, screened at 100 nM (by protocol), cells primed 5 h with Pam3CSK4 first;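 note: robust z of the log signal after scaling to non-targeting control siRNA wells of the plate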
In short: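 Read-out: IL-1a HTRF on supernatant, divided by plate negative-control median ×100, log-transformed and converted to robust z-score. Cells were RAW264.7 given 100 nM siRNA, Pam3CSK4-primed 5 hours, then LipidA-transfected 24 hour.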

Sequence	z-score
GCCUCCUCAUAAUCCACAATT against Klk1b11	inactive: 0.163
GGUCCAUAACUUGUGUGCUTT against 3300002I08Rik	inactive: -0.462
GGCAAGAAGUGCACUGUAUTT against Rac3	inactive: 0.232
GGCAACCUUUUUAAAGAAGTT against Lurap1l	inactive: -0.822
GGUGGCAGAGGAUAUGUUUTT against Acbd4	inactive: 0.646
CCGCCAUAUGUAUCACAGCTT against Rpl19	inactive: 0.0184
GCAUAAGCCUAAAAAUUCUTT against Ptprd	inactive: 0.43
GGCCAGAAUGUAUAAAGCUTT against Mboat7	inactive: -1
GGAGAUUGGACCACUAUGATT against Sec24d	inactive: -1.31
GGACUACGAUGAAGAGUUGTT against Pcgf6	inactive: 1.16
GGAGACUAGCACACAAAUATT against Nt5c	inactive: 0.988
GGUAAAUGGCACACGUAGUTT against Hint1	inactive: 0.42
GGAACUAAAGCGAUAUUUATT against Med30	inactive: 1.49
GGCAUUCACCAUACAAUGATT against Ufm1	inactive: 0.687
CCCUCUGAAAAUGACCACUTT against Tprg	inactive: 1.09
GCACCUCUCUACAUUACUGTT against Igflr1	inactive: -0.0949
GGCUACCUUCUACCUAAGGTT against Cyp2g1	inactive: 1.42
GGAAAGGGUCUGUUUUACUTT against Zc2hc1c	inactive: 0.595
GGCAAUUCUUAACCUGUCCTT against Tacc1	active: -2.75
GGCUGUGUGAGUCUGCUCATT against Ankrd55	inactive: -0.0408
GGUUGAAUACGAAGGCUUATT against Bicd1	inactive: 0.646
CCCUCCUCCAGCAUAUGAATT against Fbxl18	inactive: 0.0672

Look-ups from above:
Value for GCAUAAGCCUAAAAAUUCUTT against Ptprd under z-score: inactive: 0.43
Value for CCCUCCUCCAGCAUAUGAATT against Fbxl18 under z-score: inactive: 0.0672
Value for GGUGGCAGAGGAUAUGUUUTT against Acbd4 under z-score: inactive: 0.646

Later entries

Sequence	z-score
GGGAGUAUGUUUGUGGCUCTT against S1pr1	inactive: -0.144
GCCAUCUGCUUUAACCUCUTT against Aebp2	inactive: 0.238
GCAGCAAACUUUUUAUCCATT against Armc1	inactive: -1.1
GCUAUGAAGAUUCGAUUAATT against Rpa1	inactive: 0.726
GGUGCAUUUAUGUAUUUCCTT against Olfr916	inactive: -1.76
GGAGAAGGAACAAGAUAAATT against Srek1	inactive: -1.67
GCUACAGGGAAAAAGUUCCTT against Olfr994	inactive: 0.383
GGGUCUCAACAAAAUCAGUTT against Gli3	inactive: 1.58
GGCAACUUCAUUGUGAAGGTT against Man2b1	inactive: -0.231
CCUCUCCAUCUUUGACAUGTT against Olfr963	inactive: 0.257
CCCUAUUCUUUUUGUCAUGTT against Olfr105-ps	inactive: -1.9
GGUGUUCCAGUUCUCAAAGTT against Slc44a4	inactive: -0.213
GGCAUGGAAGGGUUGGAUATT against Polk	inactive: -0.0837
GCAGCUCCCAAUCUCACUUTT against Ankrd34a	inactive: 0.171
GCCUUAUUACUGACCUUUUTT against Smarcd2	inactive: 1.77
GGAUGCAUGAGAAAUGUUATT against Tbc1d14	inactive: -0.0572
GGCUACCACACAUACCAAATT against Stra6	inactive: -0.736
GGCCAACUAGGGUGUUUGUTT against Tsx	inactive: 0.182
GGUUUUAUGAGAAAGCAGATT against Ogfod1	inactive: 0.0298
GGAAAAACAAUUGAGCAUGTT against Fyttd1	inactive: 1.33
GGCGAUCGAGCCCUACAAATT against Bnip2	inactive: 1.26
GCAAGUAGAUUGUCUCGAGTT against Scd1	inactive: -0.12

Reprinted at random: 2 entries already listed.
Sequence	z-score
GGUGUUCCAGUUCUCAAAGTT against Slc44a4	inactive: -0.213
GGCAACUUCAUUGUGAAGGTT against Man2b1	inactive: -0.231

(listing goes on)

Sequence	z-score
GUUCUCACUCAAGGUCACCTT against Casz1	inactive: 0.395
GGUAAAUGCUGACUGUGAUTT against Cilp	inactive: -1.75
GGGUCAACCAGCAAAACCUTT against Fam216b	inactive: -1.66
CGAAGGUCAAACAGUUUGATT against Stxbp6	inactive: -0.558
GGGAUCUCUGAGCUCUGCUTT against Rilp	inactive: -1.61
GGCUCUUACACUAUAUUUUTT against Tle1	inactive: -0.0524
GGAAAAGGACCUUAAAUUUTT against Rnpc3	inactive: -0.6
GGGACCUAGCAAUUGCUUATT against A430057M04Rik	inactive: 0.613
GGUGGAUGAUGUUUAUCUCTT against Grsf1	inactive: 1.04
GGCGCAAAAGGAAAAAAAGTT against Dnajc18	inactive: -0.17
GGAUGGCUAUCUUGUAAUUTT against Sugct	inactive: 1.23
GGCAUAUACAUCAACAUGATT against Catsperg2	inactive: -0.439
GCAGCAUGCUGAAGAAAGATT against Jund	inactive: -0.929
GGAGACUCGGCUUCUUCAATT against Togaram1	inactive: 1.76
GCAUUCGAAAUGAAGAUAATT against Dnajb1	inactive: -1.75
GUUUGUGCUGUUAGGUUUUTT against Olfr1347	active: 2.46
GGCUGGUAUUACAUCUAUCTT against Myo19	inactive: 1.5
GGGAGCUAUGAACUCCUUUTT against Krtap5-5	inactive: 0.0898
GCCGUGCAAAGUUUAUUCATT against Nme8	inactive: 1.06
GGAUAUGAAUGAGACCUUCTT against Cables2	inactive: -0.565
GGGCAUCAAAUUAAGAUCATT against Mylk3	inactive: 1.64
GCCAAGCUUGCUGGAUCUUTT against 2310033P09Rik	inactive: 0.96

Sequence	z-score
GGAAUCAACGGAUGAAAUUTT against Rab3gap1	inactive: 0.716
GGUCAUCUCCAAACCCUCCTT against Rbpj	inactive: 1.51
CCUGCUACCGUACAGUCUCTT against Esm1	inactive: -0.319
GGCUCCGUUAUAGAUGACATT against Aip	inactive: -0.665
GGAAAUCUCGUGAUUUUCATT against Tead1	inactive: 0.502
GGAGAGCAGCAUUGAUAACTT against S100a5	inactive: 1.42
GGAUUCCCAACACUUGAAUTT against Prcp	inactive: 0.423
GGUGAAUCGGGCCAAUAAGTT against Slc11a2	inactive: 0.49
CCUACGGCAAACAGAGACUTT against Klk6	active: -2.29
UGCAGUGCACUGUACUACATT against Ssxb2	inactive: -0.0838
CCAAGUUGGCAUACUAUUCTT against Pank4	inactive: -0.126
GGGAGACUUCGAAUAUUUATT against Uroc1	inactive: -0.183
GGCUUUGUGCUAAAAAAAATT against Pgm2l1	inactive: -0.269
GCACUUGCUUCAAGUAAUATT against Ankrd52	inactive: -0.0516
GGAGAAGAUGCUGUCUUGCTT against Kif21b	inactive: 0.182
GGUCGGAAGAAUCUAAAGGTT against Dmp1	inactive: 0.374
GGCUAAUAAGAAGUGAAGUTT against Kifc5b	inactive: -0.351
GCAUAAGCGAAGAAGAAGUTT against Clk2	inactive: 0.0795
GGCGAUCAGGCAUCAUCCUTT against Aox1	inactive: -0.153
GGAAAGCUUACAGUUGAAATT against 4933427D06Rik	inactive: 0.992
GGGAAGGGUCCAAAAAUCUTT against Mmp17	inactive: 0.349
CCUCUCCUGCUCUGACAUATT against Olfr933	inactive: 0.541

Sequence	z-score
GCCGAAAGCUAAAUCAAUCTT against Tnfrsf13c	inactive: -0.559
GGAGAAGAGCCUUCUCAAGTT against Srsf4	active: 2.05
AGGAUACGAUUGAACGGCUTT against Rac3	inactive: 0.289
UGGUACCACCAUUUUUACCTT against Olfr452	inactive: -1.2
GGGCAUUGGUGACUUUGAATT against Hrob	active: -2.11
GCAACACGUACGAGCUCAATT against Pou2af1	inactive: -0.926
GGAGCUAUCAGAGAAGAGGTT against Slc13a4	inactive: -1.07
GGCAAUUUCCUUAUUAGAUTT against Nop58	inactive: 0.967
GGCAUGGAAAAUUCUAGGGTT against Dnajc24	inactive: -0.987
GGACAAUGUCCUCCAAUCUTT against Arhgef28	inactive: -1.95
GGACUAUCGGGAGAAAGUGTT against Ywhaq	inactive: -0.365
CCUUGAUGCUCGUAGGAAGTT against Efr3a	inactive: -1.11
GUGAGACCUACCAGAUGAATT against Vmn1r28	inactive: 1.61
GGAGUAUUACGUCUGAUAUTT against Nrxn1	active: 2.39
GCUCCGAUUAACAAAGCCGTT against Ints4	inactive: 0.97
GGACGGUCUUGCCUUCUUCTT against Fam222a	inactive: 0.901
CCUACUCCAAUGCUGUAGCTT against Slc27a1	inactive: -0.304
GGAUUUUCUCUAUGCAGGCTT against Dcaf15	inactive: 0.0862
